These are yes or no findings as the source states them, for the method shown. Some entries that bind do so weakly or less than the wild type.
Target: T1, Hse1 GAT domain tethered to the C-terminal CAT fragment (Hse1-cCAT) (yeast) (UniProt P38753)
T1 sequence: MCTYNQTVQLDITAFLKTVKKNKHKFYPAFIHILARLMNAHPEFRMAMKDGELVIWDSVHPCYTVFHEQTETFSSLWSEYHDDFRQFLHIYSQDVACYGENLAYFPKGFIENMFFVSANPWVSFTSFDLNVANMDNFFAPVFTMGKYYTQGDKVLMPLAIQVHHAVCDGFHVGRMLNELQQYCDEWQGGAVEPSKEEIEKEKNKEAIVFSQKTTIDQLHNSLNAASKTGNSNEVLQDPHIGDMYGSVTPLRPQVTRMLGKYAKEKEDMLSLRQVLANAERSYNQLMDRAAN
Experiment: split-CAT bacterial growth selection on chloramphenicol

B1: Vps27 GAT domain tethered to the N-terminal CAT fragment (Vps27-nCAT), wild type (protein, yeast, not shown: small tags and cut ends)
chain: IHSVDLSDEEKDSIYMFASLVEKMKSRPLNEILEDSKLQNLAQRVFASKARLNYALNDKAQKYNTLIEMNGKISEIMNIYDRLLEQQLQSINLSQQMEKKITGYTTVDISQWHRKEHFEAFQSVAQ
In the case of B1, the binding is reported as “binds”.

— patent US20250333724A1
